Results reported in publication doi:10.64898/2025.12.20.695697.

B1: NPRL-3 (protein, UniProt Q20069 1-511)
chain: MSAKEVDFERESHLHAVMCFLTGQSGEKIVSIYPHRKPATKAPSKDPQPSSSNPGQCVKPVLTSVKDPSYGFGRVDTEFDMSLGMLAYVFKTQEIACNDGFDMKINNQRFVAYPKTWKARGESTNYQISIVFALKNGCEQHTASAYQTLSNKIAVSLVMLQNYFGFLEREDKWADNAEEPNKDHPLEEFAKTSFIVQPLAEMFEEVRNRGNIHKYLINFVELGFCDEAHALTKLNVVPKGRQEIDEIVRKMKPYHGILLLEDVWPTPDANPIVAKLLSHCSPDRSILDMSTASGIPIFEVFMIIRHLLQWTRAILIYPLCNTNIYTSATSPQPLDKMAEKFTAQFGNTIHLAAGLAHFNPPKTLDTFIRKNLPLHEQGVRAKLVVALLRHQMLMQLHQFYYILKPYSIAILPEPKEPCPAEFTKIIEESTLPNDVKGVVADICAEMLETTSYASVKRTLSLFVKVAPMMDGNHHLEEIKYKNNLDRTEIEGVFVSFKLVIATFRRPDFVAE
B2: NPP-18 (protein, UniProt O45933 1-363)
chain: MQEDDSVKPFQTVGAHRDLIHCVSFDPHGRRMATCASDMTMAIWDRKPDGNWRRSAHWKCHGGAVWRVIWAHPEFGQIVATCSYDRTIVIWEEQIVRSEKDLKQKESQWIRRTIISDNRSDVTDICFSPRHLGLMMASCNVLGTVRIYEAPDIVDASRWNLIHELQAFHTRCGCVTWSLSRMHRPLIAVGSDEKKAENKKRVVIYENIDGLRKWQRINSLVFDLPCPITDLKFSPISMVDSHQLAVASGDVHVYNIKVARSAILEEDGVENPIQLADYNLIKVALLGDHRKAWRLRYNLMGSVISSTSLDGTLRSWKSLFVNQWVKLSEMNVDDYVPSPEEVRAFISSKTTERLPSQLEKTYF
B3: VHA-9 (protein, UniProt Q23680 1-121)
chain: MASAAKGKILAVIGDEDTVVGFLLGGVGELNKARKPNYLIVDKQTTVQEIEEAFNGFCARDDIAIILINQHIAEMIRYAVDNHTQSIPAVLEIPSKEAPYDPSKDSILNRARGLFNPEDFR

Biological target: T1, 3xFLAG::RHEB-1 (C. elegans) (UniProt P34443)
T1 sequence: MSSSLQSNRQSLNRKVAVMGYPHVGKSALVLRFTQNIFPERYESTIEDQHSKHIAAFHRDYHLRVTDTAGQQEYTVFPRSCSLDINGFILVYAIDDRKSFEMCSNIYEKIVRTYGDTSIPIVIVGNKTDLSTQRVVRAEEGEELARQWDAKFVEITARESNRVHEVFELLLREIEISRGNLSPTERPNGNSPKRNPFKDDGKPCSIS
Experiment: affinity purification with mass spectrometry

Molecule	binding
NPRL-2 (C. elegans (endogenous))	binds
B1	binds
B2	binds
B3	binds

Results are given in words; binding and its absence hold for the method and conditions named. In cells and extracts the contact can be indirect. These calls come from enrichment with a bait or labelling near it, and not all partners need be listed. Where a sequence is shown, tags or fusion partners need not be part of it.
